# From PubChem BioAssay AID2517 (National Center for Advancing Translational Sciences (NCATS), 2010)
# The chains behind the UniProt entries cited, without tags or fusion partners.
# UniProt P27695, whole entry, looked up: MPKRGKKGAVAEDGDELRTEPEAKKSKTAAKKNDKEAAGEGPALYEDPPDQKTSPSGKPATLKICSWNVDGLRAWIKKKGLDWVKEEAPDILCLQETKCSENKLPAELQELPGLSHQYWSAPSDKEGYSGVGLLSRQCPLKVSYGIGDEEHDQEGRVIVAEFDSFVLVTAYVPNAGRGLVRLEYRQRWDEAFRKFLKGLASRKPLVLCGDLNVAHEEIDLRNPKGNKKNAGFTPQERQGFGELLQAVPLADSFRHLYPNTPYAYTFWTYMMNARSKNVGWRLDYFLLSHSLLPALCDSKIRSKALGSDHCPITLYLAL
# Among all 350,000 compounds or so, about 1,200 (0.34%) were called active. This list was built around the results that the source calls inconclusive (neither active nor inactive); the mix of calls is not that of the screen. Calls come from the whole dose curve; as a rule, active = well fitted inhibition curve with a large enough effect; inconclusive = small, poorly fitted or top-dose-only effect; inactive = no such curve, though single readings can be large or run the other way. A potency beside an inconclusive call is a rough fit, not a confirmed value.
# Target: DNA repair nuclease/redox regulator APEX1 (Homo sapiens) (UniProt P27695)
# Test: qHTS Assay for Inhibitors of the Human Apurinic/apyrimidinic Endonuclease 1 (APE1); note: nearly all actives have a fitted effect of over 55% in size;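 for activity change, negative = inhibition: plate controls were vehicle for no effect and reference inhibitor for full effect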
# Details: recombinant APE1, TAMRA/BHQ-2 abasic DNA cleavage fluorescence; activity change, negative = inhibition: at 65.8 µM (top of the series)
# Summary of the method: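 Compound pre-exposure to 0.75 nM APE1, 15 min at ambient temperature. Reaction initiated with 50 nM TAMRA/BHQ-2 THF substrate, read immediately in kinetic mode, 525 nm excitation, 598 nm emission.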
# Potency is the fitted concentration of half-maximal effect.
Structure (SMILES),Potency,"activity change, negative = inhibition"
Cc1ccc(S(=O)(=O)Nc2csc(C)c2C(=O)O)cc1,active: 11.2 µM,–
COC(=O)c1ccc(CSc2nc3ccc(S(=O)(=O)N4CCOCC4)cc3[nH]2)cc1,"inconclusive: 3.55 µM [inhibitor, single point]",–
COc1ccc(C(=O)NCCS(=O)(=O)NC(C)c2ccccc2)cc1 (centres undefined),–,inactive: 31.2%
Fc1ccc(C2c3[nH]c4ccccc4c3CCN2Cc2cccn2-c2ncccn2)cc1 (centres undefined),"inconclusive: 39.8 µM [inhibitor, single point]",–
O=C(O)COc1ccccc1C=NNC(=O)c1ccc(NS(=O)(=O)c2cccs2)cc1,–,inactive: 9.77%
CNC(=O)Nc1cccc(NC(=O)NC)n1,"inconclusive: 31.6 µM [inhibitor, partial curve]",–
O=C1C=C(Nc2ccc(Cl)cc2Cl)CC(c2ccco2)C1 (centres undefined),"inconclusive: 25.1 µM [inhibitor, single point]",–
CCC(C)C(NC(=O)c1ccccc1NC(=O)c1ccco1)C(=O)NNC(=O)c1ccc(OC)cc1 (centres undefined),"inconclusive: 39.8 µM [inhibitor, single point]",–
COc1ccc(Br)cc1CNc1ccc2[nH]c(=O)[nH]c2c1,–,inactive: 0.612%
COC(=O)Cc1ccc(NC(=S)N2CCN(C)CC2)cc1,"inconclusive: 2 µM [inhibitor, partial curve]",–
C=C1C=CS(=O)(=O)N(Cc2ccccc2)C1,–,inactive: -3.51%
Cc1nc(C)c(-c2nnc(-c3ccccc3Cl)o2)cc1C(=O)NN,"inconclusive: 3.98 µM [inhibitor, single point]",–
COC(=O)c1ccccc1NC1=C/C(=N\S(=O)(=O)c2cccs2)c2ccccc2C1=O,"inconclusive: 0.126 µM [inhibitor, full curve, poor fit]",–
COC(=O)NC(/C(C(=O)OC)=C(\C)NCc1ccccc1)c1cccc(C)c1 (centres undefined),"inconclusive: 7.94 µM [inhibitor, single point]",–
C#CCOc1c(Cl)cc(/C=N/O)cc1OC,"inconclusive: 8.91 µM [inhibitor, single point]",–
CN(C(=O)CCCOc1ccc2[nH]c(=O)ccc2c1)C1CCCCC1,inactive,–
Cc1ccc2nc(NCc3ccco3)c(C=NCc3ccco3)c(=O)n2c1,"inconclusive: 3.55 µM [inhibitor, full curve]",–
N#CCCn1cc(C(=O)Nc2ccc(C(=O)O)cc2)c(-c2cc3ccccc3o2)n1,"inconclusive: 0.126 µM [inhibitor, full curve]",–
CCOc1nnc(C)c2c(C)n(-c3cccc(Cl)c3)nc12,"inconclusive: 17.8 µM [inhibitor, partial curve, poor fit]",–
O=C(/C=C/c1ccc(I)cc1)c1ccc(B(O)O)cc1,–,inactive: -5.97%
O=C1OC(c2ccc(Cl)cc2)=N/C1=C\C=C\c1ccco1,"inconclusive: 39.8 µM [inhibitor, single point]",–
CC1(C)OC(C(O)(c2cccc3c2oc2ccccc23)c2cccc3c2oc2ccccc23)C(C(O)(c2cccc3c2oc2ccccc23)c2cccc3c2oc2ccccc23)O1 (centres undefined),–,inactive: 11.7% [at 12.4 µM]
CC1(OC(=O)CCc2ccccc2)C(=O)C=C2C=C(c3ccc(C#N)cc3)N(C3CCCCC3)C=C2C1=O (centres undefined),inactive,–

Structure (SMILES),Potency,"activity change, negative = inhibition"
CC(=O)NCC(=O)N(Cc1ccco1)C1(C(=O)NC2CCCC2)CCCCC1,"inconclusive: 0.316 µM [inhibitor, partial curve]",–
COCCn1cnc2c1c(=O)n(CC(=O)OCC(=O)NCCCc1ccccc1)c(=O)n2Cc1ccccc1,"inconclusive: 1.12 µM [inhibitor, full curve, poor fit]",–
NS(=O)(=O)c1ccc(NC(=S)NCc2ccc3c(c2)OCO3)cc1,"inconclusive: 5.01 µM [inhibitor, single point]",–
O=C(/C=C/c1ccco1)Nc1ccc(CN2CCOCC2)cc1,"inconclusive: 22.4 µM [inhibitor, partial curve]",–
Cc1ccc(C)c(-n2c(SCC(=O)NC(C(=O)O)C(C)C)nnc2-c2cccc(Cl)c2)c1 (centres undefined),–,inactive: -2.36%
COc1cc(/C=C(\CCC(=O)O)c2nc3ccccc3s2)ccc1OCC(=O)Nc1c(Cl)cccc1Cl,"inconclusive: 13.4 µM [inhibitor, single point]",–
Cc1ccc2[nH]cc(CCNC(=O)/C=C/c3ccco3)c2c1,"inconclusive: 3.16 µM [inhibitor, single point]",–
COc1ccc(C2=Nn3c(nnc3-c3ccccc3O)SC2)c(OC)c1,–,inactive: -3.22%
O=c1c2c3c(sc2nc2n1CCCCC2)C(O)CCC3 (centres undefined),–,inactive: 1.02%
CN(c1ccc(C(=O)NCCSCc2ccco2)cc1)S(C)(=O)=O,"inconclusive: 39.8 µM [inhibitor, single point]",–
CCn1c(SCC(=O)Nc2nccs2)nnc1-c1ccc(S(=O)(=O)N2CCCCCC2)cc1,–,inactive: -0.836%
Cc1ccccc1NC(=S)N/N=C1\CC(C)(C)Oc2ccc(O)cc21,"inconclusive: 35.5 µM [inhibitor, single point]",–
CCOc1cc(CNc2ccc(O)cc2)cc(Br)c1OCc1ccccc1F,"inconclusive: 10 µM [inhibitor, partial curve]",–
Cc1ccc(C2C(C#N)=C(N)Oc3c2oc(CO)cc3=O)o1 (centres undefined),"inconclusive: 28.2 µM [inhibitor, single point]",–
CC(=O)c1c(C)[nH]c(C(=O)COC(=O)C2CC2)c1C,"inconclusive: 44.7 µM [inhibitor, single point]",–
Nc1nonc1/C(=N/O)N1CCN(CCO)CC1,"inconclusive: 2.82 µM [inhibitor, partial curve]",–
CSc1n[nH]c2nc3c(c(=O)n12)C1(CCCCC1)Cc1ccccc1-3,"inconclusive: 0.0501 µM [inhibitor, full curve, poor fit]",–
Cc1ccc(NCCCCO)cc1C,"inconclusive: 7.94 µM [inhibitor, single point]",–
CCOc1ncccc1C(=O)OCC(=O)Nc1cc(C(C)(C)C)ccc1OC,–,inactive: -26.3%
CC(C)(C)c1cc(C(F)(F)F)n2ncc(-c3ccccc3)c2n1,"inconclusive: 3.55 µM [inhibitor, single point]",–
Cn1c(SCC(=O)Nc2ccc3nc(SCC(=O)N4CCCC4)sc3c2)nnc1-c1ccccc1,"inconclusive: 35.5 µM [inhibitor, single point]",–
Cn1cnc2c(N/N=C/c3cccs3)ncnc21,"inconclusive: 3.55 µM [inhibitor, single point]",–
CCn1c(C)nc2cc(C(=O)NNC(=S)Nc3ccccc3Cl)ccc21,"inconclusive: 0.0316 µM [inhibitor, full curve, poor fit]",–

# Quoted at random: 4 records from the list.
Structure (SMILES),Potency,"activity change, negative = inhibition"
C=C1C=CS(=O)(=O)N(Cc2ccccc2)C1,–,inactive: -3.51%
N#CCCn1cc(C(=O)Nc2ccc(C(=O)O)cc2)c(-c2cc3ccccc3o2)n1,"inconclusive: 0.126 µM [inhibitor, full curve]",–
Fc1ccc(C2c3[nH]c4ccccc4c3CCN2Cc2cccn2-c2ncccn2)cc1 (centres undefined),"inconclusive: 39.8 µM [inhibitor, single point]",–
CCn1c(C)nc2cc(C(=O)NNC(=S)Nc3ccccc3Cl)ccc21,"inconclusive: 0.0316 µM [inhibitor, full curve, poor fit]",–

# Going on with the list:

Structure (SMILES),Potency,"activity change, negative = inhibition"
CCn1c(CC(=O)Nc2ccc(C)cc2)nnc1SCC(=O)N1CCN(c2ccccc2)CC1,–,inactive: 1.27%
Cc1cc(-c2ccccc2)nc(N(C)NC(=O)c2c(F)cccc2F)c1S(C)(=O)=O,"inconclusive: 25.1 µM [inhibitor, single point]",–
CCn1c(C)cc(/C=C2/SC(=S)NC2=O)c1C,–,inactive: 2.31%
CCN1CCN(c2nc3ccccn3c(=O)c2/C=C(\C#N)S(=O)(=O)c2ccccc2)CC1,"inconclusive: 5.62 µM [inhibitor, single point]",–
C/C(CC(=O)Nc1ccc(F)cc1)=N\NC(=O)c1ccccn1,"inconclusive: 31.6 µM [inhibitor, single point]",–
CCc1ccc(N(CC(=O)NC2CCCCC2)S(=O)(=O)c2c(C)noc2C)cc1,"inconclusive: 3.55 µM [inhibitor, single point]",–
Cc1ccc(NC(=O)CSc2nc(NS(=O)(=O)c3ccccc3)cc(=O)[nH]2)cc1,"inconclusive: 35.5 µM [inhibitor, single point]",–
Cc1cc(/C=N\NC(=O)CC(=O)NC2CCCCC2)c(C)n1-c1cccc(Cl)c1Cl,"inconclusive: 44.7 µM [inhibitor, single point]",–
COc1ccccc1OCCCCOc1ccccc1C(C)=O,"inconclusive: 25.1 µM [inhibitor, single point]",–
CCOC(=O)C1=C(C)N=C2c3ccccc3C(=O)C2C1c1ccc(Cl)cc1 (centres undefined),–,inactive: -4.4%
NC(=O)C1CCN(c2nc(-c3cccc(Br)c3)cs2)CC1,"inconclusive: 11.9 µM [inhibitor, partial curve]",–
COc1ccc(CN2CCCCC2c2cccnc2)c(OC)c1C (centres undefined),"inconclusive: 44.7 µM [inhibitor, single point]",–
O=C(NNc1nc2cc3c(cc2s1)OCO3)c1ccccc1,"inconclusive: 3.55 µM [inhibitor, single point]",–
COc1ccc2c(c1)CC/C(=C\c1ccc(OC)c(Cn3nc(C)cc3C)c1)C2=O,–,inactive: -3.35%
CCN(CC)c1ccc(/C=N/NC(=O)c2ccco2)c(O)c1,"inconclusive: 0.02 µM [inhibitor, full curve, poor fit]",–
Cn1c(=O)[nH]c(=O)c2c1[nH]c(=S)n2CCCc1ccccc1,–,inactive: 8.31%
CCCCn1nc(NC(=O)c2cccs2)c2cc3cc(OC)ccc3nc21,"inconclusive: 44.7 µM [inhibitor, single point]",–
Cc1cccnc1NC(=O)Nc1cccs1,"inconclusive: 4.47 µM [inhibitor, single point]",–
CCOC(=O)c1cc2c(ccn2C)n1CC(=O)N(Cc1ccccc1)c1ccccc1,"inconclusive: 44.7 µM [inhibitor, single point]",–
O=C1C([N+](=O)[O-])=C(O)c2cccc3cccc1c23,–,inactive: -4.32%
O=C(Cl)CCCCCCCC(=O)Cl,–,inactive: 12.6%
C#CCn1cc(/C=C2\NC(=O)NC2=O)c2ccccc21,"inconclusive: 37.7 µM [inhibitor, single point]",–
COC(=O)c1cccc(NC(=O)CSc2nc(C)cc(=O)[nH]2)c1,"inconclusive: 50.1 µM [inhibitor, single point]",–

# Single records, as listed above. Values in the order: Potency	activity change, negative = inhibition
# CSc1n[nH]c2nc3c(c(=O)n12)C1(CCCCC1)Cc1ccccc1-3 is listed with inconclusive: 0.0501 µM [inhibitor, full curve, poor fit]	–
# O=C(NNc1nc2cc3c(cc2s1)OCO3)c1ccccc1 is listed with inconclusive: 3.55 µM [inhibitor, single point]	–
